Results are given in words; binding and its absence hold for the method and conditions named. Binding seen in cells or lysates may run through a third protein. Some binding calls cover weakened binding; strength is not graded here.
Tests used:
[1] = molecular target: CREB-HA (UniProt P16220); assay: co-IP; YAP-FLAG co-transfected with TEAD4-Myc or CREB-HA into Bel-7402 cells, with or without OGT overexpression; IP with anti-Myc or anti-HA antibodies, blot for YAP-FLAG; a co-IP under rising glucose concentrations (Supplementary Fig. 9c) is taken with it
[2] = molecular target: Yes-associated protein (YAP), endogenous (human (endogenous in Bel-7402 and SMMC-7721)) (UniProt P46937); assay: co-IP; IP with anti-YAP antibodies from cell lysate, blot for OGT; cell line not given
[3] = molecular target: Yes-associated protein (YAP), endogenous (human (endogenous in Bel-7402 and SMMC-7721)) (UniProt P46937); assay: proximity ligation; Duolink in situ red starter kit (mouse/rabbit) on cells fixed with 4% paraformaldehyde; primary antibodies anti-YAP and anti-OGT; signal if the probes are <40 nm apart

By UniProt entry, the sequences of proteins in these tests, tags left out.
UniProt P16220: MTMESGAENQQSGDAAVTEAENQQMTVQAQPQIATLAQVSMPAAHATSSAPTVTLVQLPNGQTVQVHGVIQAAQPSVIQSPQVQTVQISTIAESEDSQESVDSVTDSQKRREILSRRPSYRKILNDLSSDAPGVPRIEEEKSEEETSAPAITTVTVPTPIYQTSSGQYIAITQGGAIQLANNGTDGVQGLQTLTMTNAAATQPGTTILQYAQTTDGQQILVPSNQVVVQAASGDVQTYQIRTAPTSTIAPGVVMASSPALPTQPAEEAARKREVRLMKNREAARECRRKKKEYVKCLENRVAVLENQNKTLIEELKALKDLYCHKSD
UniProt P46937: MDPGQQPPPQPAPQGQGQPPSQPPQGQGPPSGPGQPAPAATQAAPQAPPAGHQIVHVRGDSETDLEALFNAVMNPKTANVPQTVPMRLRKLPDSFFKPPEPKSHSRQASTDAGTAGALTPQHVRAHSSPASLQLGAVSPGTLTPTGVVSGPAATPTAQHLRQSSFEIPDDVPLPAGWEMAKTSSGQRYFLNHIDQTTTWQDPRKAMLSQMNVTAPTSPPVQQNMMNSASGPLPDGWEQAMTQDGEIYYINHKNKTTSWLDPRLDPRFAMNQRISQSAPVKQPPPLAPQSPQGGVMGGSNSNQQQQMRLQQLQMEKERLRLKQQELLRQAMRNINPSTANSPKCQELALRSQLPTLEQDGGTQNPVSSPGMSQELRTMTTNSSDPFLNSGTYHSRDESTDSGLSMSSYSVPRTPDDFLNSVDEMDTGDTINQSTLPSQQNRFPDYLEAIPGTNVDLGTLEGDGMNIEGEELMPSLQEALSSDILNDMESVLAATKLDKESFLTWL

YAP-FLAG, wild type (from UniProt P46937 1-504)
binding [1]: binds

B1: O-GlcNAc transferase (OGT), endogenous (enzyme, UniProt O15294 1-1046)
chain: MASSVGNVADSTEPTKRMLSFQGLAELAHREYQAGDFEAAERHCMQLWRQEPDNTGVLLLLSSIHFQCRRLDRSAHFSTLAIKQNPLLAEAYSNLGNVYKERGQLQEAIEHYRHALRLKPDFIDGYINLAAALVAAGDMEGAVQAYVSALQYNPDLYCVRSDLGNLLKALGRLEEAKACYLKAIETQPNFAVAWSNLGCVFNAQGEIWLAIHHFEKAVTLDPNFLDAYINLGNVLKEARIFDRAVAAYLRALSLSPNHAVVHGNLACVYYEQGLIDLAIDTYRRAIELQPHFPDAYCNLANALKEKGSVAEAEDCYNTALRLCPTHADSLNNLANIKREQGNIEEAVRLYRKALEVFPEFAAAHSNLASVLQQQGKLQEALMHYKEAIRISPTFADAYSNMGNTLKEMQDVQGALQCYTRAIQINPAFADAHSNLASIHKDSGNIPEAIASYRTALKLKPDFPDAYCNLAHCLQIVCDWTDYDERMKKLVSIVADQLEKNRLPSVHPHHSMLYPLSHGFRKAIAERHGNLCLDKINVLHKPPYEHPKDLKLSDGRLRVGYVSSDFGNHPTSHLMQSIPGMHNPDKFEVFCYALSPDDGTNFRVKVMAEANHFIDLSQIPCNGKAADRIHQDGIHILVNMNGYTKGARNELFALRPAPIQAMWLGYPGTSGALFMDYIITDQETSPAEVAEQYSEKLAYMPHTFFIGDHANMFPHLKKKAVIDFKSNGHIYDNRIVLNGIDLKAFLDSLPDVKIVKMKCPDGGDNADSSNTALNMPVIPMNTIAEAVIEMINRGQIQITINGFSISNGLATTQINNKAATGEEVPRTIIVTTRSQYGLPEDAIVYCNFNQLYKIDPSTLQMWANILKRVPNSVLWLLRFPAVGEPNIQQYAQNMGLPQNRIIFSPVAPKEEHVRRGQLADVCLDTPLCNGHTTGMDVLWAGTPMVTMPGETLASRVAASQLTCLGCLELIAKNRQEYEDIAVKLGTDLEYLKKVRGKVWKQRISSPLFNTKQYTMELERLYLQMWEHYAAGNKPDHMIKPVEVTESA
binding [2]: binds
binding [3]: binds
